Article PMC4533939 (Breast Cancer Research : BCR, 2015)
Strings that start with PEPTIDE1 are HELM notation: dots part the residues, brackets hold end groups and non-standard residues.

Tests used:
[1] = general procedure: Fmoc solid-phase peptide synthesis; Rink amide MBHA; conditions: whole synthesis, scale of the general procedure 100 mg resin
[2] = general procedure: Fmoc solid-phase peptide synthesis; Rink amide MBHA resin (loading 0.6 mmol/g); conditions: whole synthesis

**Q.** Which results are given for “PEPTIDE1{[FITC5].[Ava].G.G.G.D.P.K.G.G.G.G.G.[am]}$$$$V2.0”?
**A.** crude yield [1]: 47 % crude yield; isolated mass [2]: 30 mg; isolated yield ([2]; scale of the general procedure 100 mg resin): 42%
